Reference: patent publication US6524814

Chains of the proteins cited; added tags and fusions are not shown.
protease inhibitor Eglin, P01051, UniProt P01051, whole entry, looked up: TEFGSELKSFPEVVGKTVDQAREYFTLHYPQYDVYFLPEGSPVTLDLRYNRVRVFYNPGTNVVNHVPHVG

Target: protease inhibitor Eglin, P01051

B1: recombinant protein encoded by the p62 clone fragment, amino acids 56 to 300 of SEQ ID NO:4 (krill-derived multifunctional protein) (protein)
chain: GPVAPRNKIVGGMEVTPHAYPWQVGLFIDDMYFCGGSIISDEWVLTAAHCMDGAGFVEVVMGAHSIHDETEATQVRATSTDFFTHENWNSFTLSNDLALIKMPAPIEFNDVIQPVCLPTYTDASDDFVGESVTLTGWGKPSDSAFGIAEQLREVDVTTITTADCQAYYGIVTDKILCIDSEGGHGSCNGDSGGPMNYVTGGVTQTRGITSFGSSTGCETGYPDGYTRVTSYLDWIESNTGIAIDP
proteolytic activity (cleavage of the model substrate succinyl-ala-ala-pro-phe-p-nitroanilide): The proteolytic activity was inhibited by the protease inhibitor Eglin
